# Source: PubChem BioAssay (Tox21)
# Sequences of proteins named here, by UniProt entry; tags and fusion partners are left off. A change or cut given only in a name is not applied to a line headed by its entry.
# UniProt P28223, whole entry, looked up: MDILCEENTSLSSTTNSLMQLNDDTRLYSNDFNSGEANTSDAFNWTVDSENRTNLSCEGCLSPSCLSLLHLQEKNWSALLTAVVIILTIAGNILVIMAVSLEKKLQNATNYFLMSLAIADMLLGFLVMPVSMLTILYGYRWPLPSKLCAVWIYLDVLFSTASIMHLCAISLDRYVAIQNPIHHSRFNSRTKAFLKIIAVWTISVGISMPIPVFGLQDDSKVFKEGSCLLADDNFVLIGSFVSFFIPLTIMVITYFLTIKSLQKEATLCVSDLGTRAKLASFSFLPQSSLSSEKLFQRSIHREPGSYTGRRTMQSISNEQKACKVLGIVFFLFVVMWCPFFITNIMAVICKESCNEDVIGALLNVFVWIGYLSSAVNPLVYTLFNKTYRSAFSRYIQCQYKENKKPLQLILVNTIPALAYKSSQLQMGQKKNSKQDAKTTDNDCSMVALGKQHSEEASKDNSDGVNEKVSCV
# UniProt P11229: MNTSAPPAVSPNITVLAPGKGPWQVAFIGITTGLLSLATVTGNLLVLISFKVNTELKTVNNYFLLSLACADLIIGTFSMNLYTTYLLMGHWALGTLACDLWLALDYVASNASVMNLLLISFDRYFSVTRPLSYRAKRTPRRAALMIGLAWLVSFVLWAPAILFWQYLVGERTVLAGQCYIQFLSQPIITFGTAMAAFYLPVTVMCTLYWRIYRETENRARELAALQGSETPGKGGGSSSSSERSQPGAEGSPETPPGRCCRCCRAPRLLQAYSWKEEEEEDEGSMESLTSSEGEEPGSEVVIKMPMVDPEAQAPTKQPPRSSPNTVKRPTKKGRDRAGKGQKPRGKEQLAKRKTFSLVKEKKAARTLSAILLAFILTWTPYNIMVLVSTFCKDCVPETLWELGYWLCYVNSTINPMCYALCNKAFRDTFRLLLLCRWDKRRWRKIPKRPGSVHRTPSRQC
# UniProt P14416, whole entry, looked up: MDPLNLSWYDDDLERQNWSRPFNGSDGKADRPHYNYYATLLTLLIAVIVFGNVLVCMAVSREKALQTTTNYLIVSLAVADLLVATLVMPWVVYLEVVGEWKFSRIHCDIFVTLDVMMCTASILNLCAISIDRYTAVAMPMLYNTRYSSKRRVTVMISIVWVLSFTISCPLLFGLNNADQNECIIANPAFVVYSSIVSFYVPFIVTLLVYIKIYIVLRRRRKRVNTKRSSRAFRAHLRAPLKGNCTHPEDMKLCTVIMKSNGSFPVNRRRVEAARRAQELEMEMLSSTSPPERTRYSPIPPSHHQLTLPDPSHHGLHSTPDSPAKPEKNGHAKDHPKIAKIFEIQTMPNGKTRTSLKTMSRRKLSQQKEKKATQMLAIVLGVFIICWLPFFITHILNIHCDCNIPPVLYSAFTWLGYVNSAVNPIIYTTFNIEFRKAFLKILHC
# Several values for one entry are separate records, joined by “and”; a condition that tells them apart may be missing. Identical values can stand only once. Inconclusive means that the source gave no clear call. Such entries were picked first, then a sample of the others. For some assays here: Where the call is inconclusive, the potency comes from a doubtful curve fit. Activity calls are given as the source filed them. Unless noted, calls come from the whole dose curve.
# Legend:
# [1] = biological target: 5-hydroxytryptamine receptor 2A (Homo sapiens) (UniProt P28223); test: 5-hydroxytryptamine receptor 2A (HTR2A) small molecule antagonists, cell-based qHTS assay (AID 1963586); note: nearly all actives have a fitted effect of over 45% in size; note: potency is the fitted concentration of half-maximal effect
# Procedure, shortened: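 Antagonist-mode intracellular calcium assay: DOI (4 nM) added after 5 min compound pre-incubation at room temperature to dye-loaded HTR2A-CHO cells. Fluorescence followed for 3 min, sampled every second.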
# [2] = biological target: Muscarinic acetylcholine receptor M1 (Homo sapiens) (UniProt P11229); test: Cholinergic receptor muscarinic 1 (CHRM1) small molecule antagonists, cell-based qHTS assay (AID 1963588); note: nearly all actives have a fitted effect of over 40% in size; note: potency is the fitted concentration of half-maximal effect
# Procedure, shortened: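 CHRM1-CHO calcium-flux assay, antagonist mode. Cells were seeded 18 h, dye-loaded 1 h at 37 C and given compound for 5 min at RT, then acetylcholine was added at 50nM. FDSS fluorescence was read 3 min; 15 concentrations, three runs.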
# [3] = biological target: Beta-2 adrenergic receptor (Homo sapiens) (UniProt P07550); test: Adrenergic beta2 receptor (ADRB2) small molecule agonists, cell-based qHTS assay (AID 1963593); details: CHO-ADRB2 cells, cAMP HTRF, 30 min; note: potency is the fitted concentration of half-maximal effect;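 for activation: CHO cells stably overexpressing human ADRB2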
# Procedure, shortened: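 CHO cells stably over-expressing ADRB2 were plated overnight at 37C, then dosed with compounds plus a stimulation mix containing 100uM IBMX and 25uM Ro-20-1724 for 0.5hr at room temperature. cAMP was measured by HTRF competition, 1hr.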
# [4] = cAMP Responsive Elements (CRE) small molecule agonists, cell-based qHTS assay (AID 1963590); details: CRE-bla HEK293T, beta-lactamase FRET ratio, 3 h; activation: at 92.4 µM (top of the series) unless noted; note: potency is the fitted concentration of half-maximal effect
# Procedure, shortened: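 A CRE-responsive beta-lactamase reporter in HEK 293T cells was used. Treatment ran 3 h at 37 C; detection used LiveBLAzer B/G FRET substrate for 2 h at room temperature.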
# [5] = biological target: 5-hydroxytryptamine receptor 2A (Homo sapiens) (UniProt P28223); test: 5-hydroxytryptamine receptor 2A (HTR2A) small molecule agonists, cell-based qHTS assay (AID 1963587); details: HTR2A-CHO cells, calcium flux fluorescence, agonist mode; activation: at 76.8 µM (top of the series); note: nearly all actives have a fitted effect of over 30% in size; note: potency is the fitted concentration of half-maximal effect
# Procedure, shortened: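 CHO cells stably expressing human HTR2A, plated 18 h, loaded with calcium dye 1 h at 37 C. Agonist mode: compounds added and intracellular calcium fluorescence recorded kinetically for 2 min at 1 sec intervals.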
# [6] = biological target: D(2) dopamine receptor (Homo sapiens) (UniProt P14416); test: Dopamine D2 receptor (DRD2) small molecule agonists, cell-based qHTS assay (AID 1963594); details: HEK293-DRD2 cAMP HTRF, agonist mode, 30 min; activation: at 92.4 µM (top of the series) unless noted; note: nearly all actives have a fitted effect of over 35% in size; note: potency is the fitted concentration of half-maximal effect
# Procedure, shortened: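 HEK293 cells stably expressing human DRD2, pre-treated with PDE inhibitor Ro20-1724 (0.1 mM final) and compound 10 min at room temperature, then stimulated with NKH477 (200nM […]) for 30 min. cAMP read by HTRF (665/620 nm).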
# [7] = biological target: D(2) dopamine receptor (Homo sapiens) (UniProt P14416); test: Dopamine D2 receptor (DRD2) small molecule antagonists, cell-based qHTS assay (AID 1963595; active = well fitted inhibition curve with a large enough effect in the signal ratio in the repeat runs, with a control signal flat; inconclusive = weak or mixed curves, or effect the other way; the % refers to the signal ratio; note: potency is the fitted concentration of half-maximal effect); details: HEK293-DRD2 cAMP HTRF antagonist mode
# Procedure, shortened: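 Cells were plated and grown for 24 h at 37 °C. Ro20-1724 (0.1 mM final) went in first, then compound for 10 min. NKH477 (200 nM) with quinpirole (12 nM) followed for 30 min at RT, then HTRF detection reagents for 1 h.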
# [8] = biological target: Beta-2 adrenergic receptor (Homo sapiens) (UniProt P07550); test: Adrenergic beta2 receptor (ADRB2) small molecule antagonists, cell-based qHTS assay (AID 1963592); details: CHO-ADRB2 cells, isoproterenol-stimulated cAMP HTRF ratio, 0.5 h; activity change, negative = inhibition: at 92.4 µM (top of the series) unless noted; note: nearly all actives have a fitted effect of over 50% in size
# Procedure, shortened: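 Cells (CHO, stable ADRB2 overexpression) incubated 18-20hr at 37C; compounds added from DMSO; agonist mix (1nM isoproterenol, 100uM IBMX, 25uM Ro-20-1724) added; 0.5hr RT; d2-cAMP and anti-cAMP-cryptate added; 1hr RT; 665/615 nm read.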
# [9] = cAMP Responsive Elements (CRE) small molecule antagonists, cell-based qHTS assay (AID 1963591; active = well fitted inhibition curve with a large enough effect in the signal ratio in the repeat runs, not every such curve was filed as active; inconclusive = weak or mixed curves, or effect the other way; the % refers to the signal ratio; note: potency is the fitted concentration of half-maximal effect); details: CRE-bla HEK293T, beta-lactamase FRET ratio; activity change, negative = inhibition: at 92.4 µM (top of the series) unless noted
# Procedure, shortened: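 HEK293T cells carrying a CRE-driven beta-lactamase reporter receive compound and NKH477 (0.25 uM final) for 3 h. Fluorescence from LiveBLAzer B/G FRET substrate is read after 2 h at room temperature.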
# [10] = activation: at 92.4 µM (top of the series) unless noted
# [11] = activity change, negative = inhibition: at 92.4 µM (top of the series) unless noted
# % is set by controls: 0 for no effect and ±100 for the full control effect.
compound,measurement,setting,value
CN(C)C(=O)C(c1ccccc1)c1ccccc1,Potency,[1],"inconclusive: 0.147 µM [inhibitor, single point]"
same,Potency,[2],inactive
same,Potency,[3]; [10],"inconclusive: 19 nM [inhibitor, full curve, poor fit] and inactive"
CCOC(=O)/C=C(C)/C=C/C[C@@H](C)CCCC(C)C,Potency,[1],"inconclusive: 4.21 µM [inhibitor, single point]"
same,Potency,[4],inactive
same,activation,[3]; [10],inconclusive: 35.6%
Clc1cccc(C(Cl)(Cl)Cl)n1,Potency,[1],"inconclusive: 0.667 µM [inhibitor, full curve, poor fit]"
same,Potency,[5],inactive
same,Potency,[2],inactive
same,Potency,[3]; [10],inactive
same,Potency,[6],inactive
Cc1ccc2c(c1)C1CN(C)CCC1N2 (stereo not given),Potency,[1],"inconclusive: 0.797 µM [inhibitor, partial curve, poor fit]"
same,Potency,[2],"inconclusive: 10 µM [inhibitor, single point]"
same,activation,[3]; [10],inconclusive: -18% [at 19 µM]
CC(=O)c1ccc(-c2ccccc2)cc1,Potency,[1],"inconclusive: 11.9 µM [inhibitor, full curve]"
same,Potency,[4],inactive
same,activation,[3]; [10],inconclusive: -40.7%
CC#C[C@]1(O)CC[C@H]2[C@@H]3C[C@H](C)C4=CC(=O)CC[C@]4(C)[C@H]3CC[C@@]21C,Potency,[1],"inconclusive: 0.0729 µM [inhibitor, single point]"
same,Potency,[4],"inconclusive: 13.3 µM [fluorescent, partial curve, poor fit]"
same,activation,[3]; [10],inconclusive: -24.6% [at 42.5 µM]
Cc1ccccc1N,Potency,[1],"inconclusive: 10.5 µM [inhibitor, single point]"
same,Potency,[4],"inconclusive: 0.858 µM [activator, full curve]"
same,activation,[3]; [10],inconclusive: 14.4% and inconclusive: -9.02%
same,"activity change, negative = inhibition",[7]; [11],inconclusive: 9.11%
same,"activity change, negative = inhibition",[7]; at 92.4 µM (top of the series),inactive: -2.28% and inactive: -17% and inactive: 5.34%
Nc1c(Cl)cc([N+](=O)[O-])cc1Cl,Potency,[1],inactive
same,Potency,[2],inactive
same,Potency,[8],inactive
same,activation,[3]; [10],inconclusive: -28.8%
same,activation,[3]; at 92.4 µM (top of the series),inactive: -12.2%
same,activation,[6],inconclusive: -26.7%
O=[N+]([O-])c1ccc(CCl)cc1,Potency,[1],"inconclusive: 1.65 µM [inhibitor, full curve, poor fit]"
same,Potency,[5],inactive
same,activation,[3]; [10],inconclusive: -0.0591%
O=C(Cc1ccccc1)OCCc1ccccc1,Potency,[1],"inconclusive: 0.84 µM [inhibitor, single point]"
same,Potency,[2],"inconclusive: 47.2 µM [inhibitor, single point]"
same,Potency,[4],inactive
same,"activity change, negative = inhibition",[8],inconclusive: -47%
same,activation,[3]; [10],inconclusive: -66.2%
COc1cc(N)c(Cl)cc1C(=O)NC1CN2CCC1CC2 (stereo not given),Potency,[1],active: 5.79 µM
same,Potency,[2],inactive
CC(C)(C)NCC(O)c1ccccc1Cl (stereo not given),Potency,[1],"inconclusive: 0.818 µM [inhibitor, single point]"
same,Potency,[2],"inconclusive: 0.0065 µM [inhibitor, full curve, poor fit]"
same,Potency,[4],"inconclusive: 0.0944 µM [activator, full curve, poor fit]"
same,Potency,[6],"inconclusive: 33.5 µM [falling, partial curve, poor fit]"
same,Potency,[7]; [11],"inconclusive: 0.944 µM [inhibitor, full curve]"
Clc1ccc(C(OCCN2CCCCC2)c2ccccc2)cc1 (stereo not given),Potency,[1],"inconclusive: 5.79 µM [inhibitor, full curve]"
same,Potency,[2],active: 0.46 µM
same,Potency,[4],"inconclusive: 26.6 µM [rising, partial curve]"
same,Potency,[7]; [11],inconclusive: 29.8 µM [inhibitor]
CCN(CC)CCOC(=O)C(O)(c1ccccc1)c1ccccc1,Potency,[1],inconclusive: 4.6 µM [inhibitor]
same,Potency,[5],active: 1.34 µM
same,Potency,[9],inactive
same,Potency,[3]; [10],"inconclusive: 10.6 µM [activator, partial curve, poor fit]"
C=CC(=O)OCCN(C)C,Potency,[1],"inconclusive: 0.0092 µM [inhibitor, full curve, poor fit]"
same,Potency,[2],inactive
same,activation,[3]; [10],inconclusive: -17.3%
CC(C)(C)c1ccccc1O,Potency,[1],"inconclusive: 47.8 µM [inhibitor, partial curve, poor fit]"
same,Potency,[5],"inconclusive: 55.6 µM [activator, single point]"
same,Potency,[9],inconclusive: 68.6 µM
Clc1ccc(C2(Cn3cncn3)CC(Br)CO2)c(Cl)c1 (stereo not given),Potency,[1],"inconclusive: 46.9 µM [inhibitor, single point]"
same,Potency,[5],"inconclusive: 54.6 µM [activator, single point]"
same,Potency,[4],"inconclusive: 34.2 µM [rising, partial curve]"
same,Potency,[3]; [10],inactive
same,"activity change, negative = inhibition",[7]; [11],inconclusive: -40.7%
